Data taken from paper PMC6403214.
No constants are given. Whether binding was seen depends on the method and setting. Binding seen in cells or lysates may run through a third protein. Some binding calls cover weakened binding; strength is not graded here.

By UniProt entry, the sequences of proteins in these tests, tags left out. Where a name states a change or a piece, a line headed by the entry shows the natural chain unless it says otherwise.
UniProt Q62481: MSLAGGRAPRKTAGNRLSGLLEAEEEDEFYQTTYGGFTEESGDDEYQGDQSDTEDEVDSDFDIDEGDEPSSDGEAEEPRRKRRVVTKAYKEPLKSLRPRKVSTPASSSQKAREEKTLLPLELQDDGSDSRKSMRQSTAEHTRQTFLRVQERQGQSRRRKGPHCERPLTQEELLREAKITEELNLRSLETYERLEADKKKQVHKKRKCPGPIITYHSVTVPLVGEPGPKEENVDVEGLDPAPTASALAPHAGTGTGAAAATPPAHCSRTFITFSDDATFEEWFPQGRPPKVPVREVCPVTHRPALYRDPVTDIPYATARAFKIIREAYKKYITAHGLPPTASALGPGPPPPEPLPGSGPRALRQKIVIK

Molecular target: YL1 (H2A.Z chaperone, subunit of the SRCAP complex) (mouse (endogenous in intestinal crypts and organoids)) (UniProt Q62481)
Assay: co-IP; anti-YL1 immunoprecipitation from lysate of wild-type or control (+/+) mouse intestinal crypts, immunoblotting for p-Akt, H2A.Z, Znhit1

B1: Zinc finger HIT-type containing 1 (Znhit1) (protein, UniProt Q8R331 1-154)
chain: MVEKKPAVRSQDPGQRRVLDRAARQRRINRQLEALENDNFQDDPHAGLPQLGKRLPQFDDDADTGKKKKKTRGDHFKLRFRKNFQALLEEQNLSASEGPNYLTACAGPPSRPQRPFCAVCGFPSPYTCVSCGARYCTVRCLGTHQETRCLKWTV
  binding: binds
